# Library screen at single concentrations

Sequences of proteins named here, by UniProt entry; tags and fusion partners are left off. Residues count along the entry.
UniProt P9WNZ1, whole entry: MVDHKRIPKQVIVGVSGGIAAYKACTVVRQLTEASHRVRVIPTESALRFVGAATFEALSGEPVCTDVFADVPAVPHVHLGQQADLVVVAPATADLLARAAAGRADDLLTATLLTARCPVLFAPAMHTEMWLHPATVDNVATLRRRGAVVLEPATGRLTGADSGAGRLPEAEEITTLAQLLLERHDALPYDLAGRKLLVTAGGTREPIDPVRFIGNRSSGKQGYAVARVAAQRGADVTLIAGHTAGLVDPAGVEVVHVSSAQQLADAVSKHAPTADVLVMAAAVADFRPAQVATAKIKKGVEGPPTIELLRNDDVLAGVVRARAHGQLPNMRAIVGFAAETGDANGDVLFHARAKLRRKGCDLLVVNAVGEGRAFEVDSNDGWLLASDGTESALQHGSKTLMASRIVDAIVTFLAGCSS
UniProt I6X8D2, whole entry: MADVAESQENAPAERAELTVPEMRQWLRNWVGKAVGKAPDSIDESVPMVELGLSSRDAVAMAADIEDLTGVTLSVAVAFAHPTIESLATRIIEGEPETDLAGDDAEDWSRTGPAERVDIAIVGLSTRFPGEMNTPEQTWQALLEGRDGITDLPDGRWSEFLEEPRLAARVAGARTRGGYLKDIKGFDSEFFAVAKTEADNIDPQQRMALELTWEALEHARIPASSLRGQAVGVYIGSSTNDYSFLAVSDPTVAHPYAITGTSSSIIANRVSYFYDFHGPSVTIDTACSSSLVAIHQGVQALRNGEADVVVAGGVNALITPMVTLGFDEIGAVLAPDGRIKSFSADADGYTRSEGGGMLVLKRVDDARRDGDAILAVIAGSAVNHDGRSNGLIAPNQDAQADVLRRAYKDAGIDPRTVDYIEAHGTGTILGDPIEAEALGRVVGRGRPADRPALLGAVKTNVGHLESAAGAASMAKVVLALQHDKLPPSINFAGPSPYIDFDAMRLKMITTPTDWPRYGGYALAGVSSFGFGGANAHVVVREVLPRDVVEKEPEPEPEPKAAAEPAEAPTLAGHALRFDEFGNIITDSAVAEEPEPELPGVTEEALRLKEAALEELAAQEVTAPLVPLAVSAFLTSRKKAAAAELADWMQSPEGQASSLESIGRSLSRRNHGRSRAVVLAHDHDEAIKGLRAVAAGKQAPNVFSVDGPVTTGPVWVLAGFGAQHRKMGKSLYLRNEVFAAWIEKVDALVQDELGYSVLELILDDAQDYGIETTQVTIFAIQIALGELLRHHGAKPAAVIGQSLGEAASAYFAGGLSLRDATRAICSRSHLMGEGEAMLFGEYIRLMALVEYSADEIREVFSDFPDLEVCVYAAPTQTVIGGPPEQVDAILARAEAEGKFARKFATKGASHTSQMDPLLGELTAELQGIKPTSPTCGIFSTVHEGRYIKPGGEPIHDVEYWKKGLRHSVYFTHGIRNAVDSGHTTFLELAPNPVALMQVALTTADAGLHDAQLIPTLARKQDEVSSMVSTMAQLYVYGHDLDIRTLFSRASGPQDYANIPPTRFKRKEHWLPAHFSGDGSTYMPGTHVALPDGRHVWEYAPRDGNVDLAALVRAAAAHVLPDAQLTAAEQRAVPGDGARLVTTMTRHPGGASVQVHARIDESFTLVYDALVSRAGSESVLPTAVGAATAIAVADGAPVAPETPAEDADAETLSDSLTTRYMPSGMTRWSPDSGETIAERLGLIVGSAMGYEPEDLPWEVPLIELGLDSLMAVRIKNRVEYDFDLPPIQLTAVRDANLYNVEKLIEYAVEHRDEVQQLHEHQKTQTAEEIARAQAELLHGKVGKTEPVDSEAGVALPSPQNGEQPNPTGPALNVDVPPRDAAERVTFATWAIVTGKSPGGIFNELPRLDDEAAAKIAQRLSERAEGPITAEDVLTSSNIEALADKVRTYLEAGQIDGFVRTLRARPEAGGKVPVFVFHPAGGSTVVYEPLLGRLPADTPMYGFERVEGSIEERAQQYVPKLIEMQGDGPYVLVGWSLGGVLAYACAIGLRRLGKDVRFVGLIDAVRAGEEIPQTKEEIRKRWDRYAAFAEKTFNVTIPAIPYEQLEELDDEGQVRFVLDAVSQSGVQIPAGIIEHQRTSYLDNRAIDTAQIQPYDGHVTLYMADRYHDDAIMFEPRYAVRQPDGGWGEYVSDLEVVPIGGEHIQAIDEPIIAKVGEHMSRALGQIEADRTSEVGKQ
UniProt P9WPC5, whole entry: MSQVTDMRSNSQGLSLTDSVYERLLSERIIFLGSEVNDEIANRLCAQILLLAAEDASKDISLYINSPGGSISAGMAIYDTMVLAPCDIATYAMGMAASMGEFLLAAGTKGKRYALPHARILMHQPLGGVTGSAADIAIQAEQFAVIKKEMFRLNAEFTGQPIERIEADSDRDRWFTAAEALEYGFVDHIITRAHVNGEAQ
UniProt P9WPC3, whole entry partner: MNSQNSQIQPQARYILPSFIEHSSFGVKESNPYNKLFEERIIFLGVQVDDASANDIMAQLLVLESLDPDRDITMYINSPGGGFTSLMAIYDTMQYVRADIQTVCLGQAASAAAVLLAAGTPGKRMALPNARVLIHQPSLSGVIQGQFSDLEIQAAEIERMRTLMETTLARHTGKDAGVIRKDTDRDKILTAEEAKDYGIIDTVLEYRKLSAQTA
UniProt A4I591, 1-473: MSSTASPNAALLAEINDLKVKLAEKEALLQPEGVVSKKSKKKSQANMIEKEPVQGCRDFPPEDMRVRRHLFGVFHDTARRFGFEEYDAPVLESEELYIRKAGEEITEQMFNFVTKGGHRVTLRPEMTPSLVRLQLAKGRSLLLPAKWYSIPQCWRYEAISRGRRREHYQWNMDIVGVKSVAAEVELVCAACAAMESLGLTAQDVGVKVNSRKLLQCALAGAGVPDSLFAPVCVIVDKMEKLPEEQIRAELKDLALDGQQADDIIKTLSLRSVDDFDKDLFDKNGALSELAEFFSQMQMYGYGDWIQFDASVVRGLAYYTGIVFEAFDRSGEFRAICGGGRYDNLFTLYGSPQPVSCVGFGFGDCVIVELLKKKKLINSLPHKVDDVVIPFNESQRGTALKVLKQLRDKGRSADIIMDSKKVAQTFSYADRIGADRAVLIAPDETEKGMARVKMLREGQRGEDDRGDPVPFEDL
UniProt P9WFT3, whole entry: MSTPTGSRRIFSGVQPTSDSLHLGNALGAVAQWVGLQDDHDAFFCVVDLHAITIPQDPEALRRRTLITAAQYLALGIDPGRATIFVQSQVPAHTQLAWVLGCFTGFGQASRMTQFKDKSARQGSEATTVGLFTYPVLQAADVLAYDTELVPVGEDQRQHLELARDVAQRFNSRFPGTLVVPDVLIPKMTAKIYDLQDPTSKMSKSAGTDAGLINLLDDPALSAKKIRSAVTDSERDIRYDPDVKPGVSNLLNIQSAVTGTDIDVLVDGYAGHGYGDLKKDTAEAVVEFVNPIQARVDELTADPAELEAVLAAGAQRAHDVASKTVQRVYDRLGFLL

CoaBC: 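Coenzyme A biosynthesis protein CoaBC, Mycobacterium tuberculosis (UniProt P9WNZ1). Enzyme assay of CoaBC with a phosphate dye (Biomol Green) read at 650 nm. Tested at 30 µM. Direction is inferred from only a few compounds that gave an IC50; most scored high, so higher reads as stronger inhibition. Most strong results did not repeat in a second test. Of about 67,000 compounds tested this way, about 40 (0.06%) reached 50% or more in at least one test.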
Pks13 thioesterase: 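Enzyme assay of the thioesterase domain of polyketide synthase 13; the read-out is not stated. Target: Polyketide synthase Pks13, Mycobacterium tuberculosis (UniProt I6X8D2). Compounds at 30 µM. Higher reads as stronger inhibition (inferred from which compounds were picked for retests). About 67,000 compounds were tested under these conditions; 0.46% (about 300) showed 50% or more at least once.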
ClpP1P2: 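Protease assay of ClpP1P2, read by the AMC dye that it sets free. Target: ClpP1P2, Mycobacterium tuberculosis (UniProt P9WPC5 and UniProt P9WPC3). Tested at 50 µM. Higher reads as stronger inhibition, judged from the few compounds that gave an IC50. Most other retested compounds had strongly negative values. About 69,000 compounds were tested under these conditions; 0.015% (about 10) showed 50% or more at least once.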
Toxoplasma: 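Assay of Toxoplasma gondii numbers, read through their beta-galactosidase reporter with a colour substrate. Compounds at 10 µM. The record gives no direction; the compounds picked for IC50 retests had high values, so higher reads as fewer parasites. Size under these conditions: about 67,000 compounds, about 260 of them at 50% or above in at least one test.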
LiHisRS: 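Enzyme assay of histidyl-tRNA synthetase; the read-out is not stated. Target: Histidine-tRNA ligase, Leishmania infantum (UniProt A4I591). Compounds at 30 µM. Higher reads as stronger inhibition (inferred: compounds with an IC50 in retests scored well above the rest). The assay is labelled LdHisRS but filed under L. infantum. About 69,000 compounds were tested under these conditions; 0.6% (about 410) showed 50% or more at least once.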
MtTrpRS: 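Tryptophan-tRNA ligase, Mycobacterium tuberculosis (UniProt P9WFT3). Enzyme assay of tryptophanyl-tRNA synthetase; the read-out is not stated. Compounds at 10 µM. Higher most likely means stronger inhibition; the record gives no direction and few retests gave an IC50. About 65,000 compounds were tested under these conditions; 0.098% (about 64) showed 50% or more at least once.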

Each number is a percent effect as filed.
The controls that fix the scale are not given in the record; negative values are as filed.
Compounds were drawn at random from those tested, without regard to their results.
Two or more numbers in one place are separate tests of the same structure; such repeats can differ widely.
A dash means the value is not listed here; it may have been measured.

| # | SMILES | CoaBC | Pks13 thioesterase | ClpP1P2 | Toxoplasma | LiHisRS | MtTrpRS |
|---|---|---|---|---|---|---|---|
| 1 | `O=C(C1CCC2(CCN(CC3CCOCC3)CC2)O1)N1CCCCO1.O=C(O)C(F)(F)F` (configuration not stated) | - | - | - | -27.84% | - | - |
| 2 | `CCOC(=O)N1[C@@H](c2ccco2)[C@@H](C(=O)NC)C[C@]12CCCCNC2=O` | -1.695% | -26.84% | 8.203% | -14.33% | -4.082% | - |
| 3 | `COc1ccccc1CNC(Cc1cccs1)c1nc(C)c(C)s1.Cl` (configuration not stated) | - | - | - | -16.58% | - | - |
| 4 | `Cn1ncc2c1C(COCC1CC1)CN(Cc1ccncc1)C2` (configuration not stated) | 7.028% | -18.72% | -15.64% | -7.766% | 14.52% | 0.4504% |
| 5 | `COCCN1CCCC(O)(CN2CCN(c3ncccc3C)CC2)C1=O` (configuration not stated) | 1.066% | -12.05% | -2.797% | -3.347% | 9.615% | -5.341% |
| 6 | `Cc1ccc(CN(Cc2nc3c(cnn3C)c(=O)[nH]2)C(C)C)s1` | 1.053% | -16.47% | -24% | 8.216% | 12.04% | -6.952% |
| 7 | `Cc1ccc(NCCNC(=O)c2cc(CC(C)C)n[nH]2)nn1` | 1.324% | -4.311% | -0.1518% | 13.84% | 13.48% | 4.842% |
| 8 | `C=Cn1ncc(CN2C[C@@H]3C[C@@H](O)CN3C[C@@H]2Cc2ccccc2)c1C` | 3.148% | -6.387% | -0.7764% | - | 4.124% | - |
| 9 | `Cc1csc(C2(NCC(O)COC(C)C)CCCC2)n1` (configuration not stated) | 6.483% | -5.127% | -1.19% | -1.23% | 6.14% | -5.083% |
| 10 | `CN(C)C(C(=O)NCC1(N(C)C)CCOCC1)c1ccccc1F` (configuration not stated) | - | - | 12.16% | 0.863% | 1.408% | 3.532% |
| 11 | `Cc1cccc(C2(O)CCN(C(=O)c3ccccn3)CC2)c1C` | 6.41% | -6.67% | -21.86% | 6.497% | 15.38% | -2.355% |
| 12 | `CN1CC(=O)N(c2cnn(C)c2)CC12CCN(Cc1nccn1C)C2.O=C(O)C(F)(F)F.O=C(O)C(F)(F)F` (configuration not stated) | - | - | - | 18.66% | - | - |
| 13 | `O=S1(=O)c2cccnc2OC(Cc2ccccc2)CN1CC1CC1` (configuration not stated) | 1.35% | 24.35% | 2.035% | -0.6635% | 6.186% | - |
| 14 | `CCOc1ccnc(N2CCN(C(=O)c3ccncc3)CC2)n1` | -5.606% | -11.94% | -20.06% | -1.987% | -0.8772% | 1.355% |
| 15 | `Cc1cc(N2CCCCCC2)n2nc(C)c(C)c2n1` | 3.797% | -6.194% | 0.8019% | 6.746% | 25.96% | -2.085% |
| 16 | `COc1ncccc1CN1CCC2(CC1)CC(OCC1CC1)CO2` (configuration not stated) | 2.195% | 10.79% | -18.32% | - | 11.32% | - |
| 17 | `COc1ccc(CCC(=O)Nc2cccnc2N2CCCC2)cc1Br` | 2.966% | -3.911% | 5.038% | 3.963% | 21.43% | 2.269% |
| 18 | `COC[C@@]12CC[C@@H](N3CCOCC3)C[C@H]1CCN(c1cnccn1)C2` | -5.952% | 15.07% | 8.555% | - | 2.778% | 2.43% |
| 19 | `CC(C)(N)C(=O)N1CCCC(c2cncc(Oc3cccnc3)n2)C1` (configuration not stated) | 2.696% | 4.428% | 5.654% | 2.408% | 13.54% | - |
| 20 | `Cc1cc(C2CCCN2C(=O)c2cnn(C)c2)on1` (configuration not stated) | 16.11% | -2.366% | 18.54% | 11.27% | -3.448% | -3.834% |
| 21 | `CCOC(=O)C1CN(CC2CC2)Cc2ncn(CC)c21` (configuration not stated) | 9.221% | -33.76% | 7.542% | - | 28% | -6.038% |
| 22 | `Cc1cc2c(=O)n3c(nc2s1)CCN(Cc1cncn1C)CC3` | 1.716% | -26.25% | -2.826% | - | 5.208% | - |
| 23 | `CC(C)CC(NC(=O)OC(C)(C)C)C(N)=O` (configuration not stated) | -0.6904% | -19.89% | 3.769% | -1.336% | 10.42% | 3.431% |
| 24 | `O=C(O)C(F)(F)F.O=C(O)C(F)(F)F.O=C(O)C(F)(F)F.[H][C@]12C[C@H](C(=O)N3CCN(C)CC3)N(C)[C@@]1([H])CN(c1ncc(C)cn1)C2` | - | - | - | 3.873% | - | - |
| 25 | `O=C(O)C(F)(F)F.[H][C@@]12C[C@H](C(=O)N3CCCCO3)CN(CC3CC3)[C@]1([H])CCO2` | - | - | - | 21.48% | - | - |
| 26 | `COc1cc(CO)ccc1OCc1nc(C(C)C)no1` | 2.355% | -28.14% | 9.3% | 8.929% | 0% | -0.9338% |
| 27 | `[H][C@@]12CCCO[C@]1([H])[C@@H](OCC1CCOCC1)CN2C(=O)c1ccnnc1` | - | - | - | 9.143% | - | - |
| 28 | `O=S(=O)(c1cccs1)N1CCCn2cnc(CO)c2C1` | 2.606% | -27.36% | -5.05% | - | 28.57% | 2.929% |
| 29 | `O=C(O)C(F)(F)F.O=C(c1ccncc1)N1CCCn2nnc(COCCO)c2C1` | - | - | - | -0.6627% | - | - |
| 30 | `Cc1occc(=O)c1OCC(=O)N1CCN(c2cccc(Cl)c2)CC1` | 2.025% | 1.684% | -7.383% | -5.056% | 15.79% | 2.522% |
| 31 | `O=S(=O)(NCC1CCN(c2cnccn2)CC1)c1c(F)cccc1F` | 3.422% | 0.2447% | -25.94% | -1.774% | 14.56% | 0.9923% |
| 32 | `COCC(O)CN1CCC(=O)N(Cc2ccco2)Cc2ccccc21` (configuration not stated) | -4.6% | -17.45% | 20.31% | -2.751% | 4.082% | - |
| 33 | `O=C(O)C(F)(F)F.[H][C@@]12CCCO[C@]1([H])[C@H](N(C)C)CN2C(=O)CCc1ccccc1` | - | - | - | -5.419% | - | - |
| 34 | `Cn1ncnc1CNc1ccccc1C(=O)NC(C)(C)C` | 3.201% | 12.68% | -0.8274% | 2.267% | 22.22% | 3.728% |
| 35 | `COc1cc(OC)cc(C2(O)CCN(Cc3ncc(C)o3)CC2)c1` | - | 2.606% | -5.57% | -0.3371% | 14.29% | 19.5% |
| 36 | `Nc1nc(N2CCCC(COc3ccc(F)cc3)C2)c2nc[nH]c2n1` (configuration not stated) | -24.27% | -11.25% | -5.485% | -5.224% | 81.93% | -2.667% |
| 37 | `[H][C@]12CC[C@]([H])(CN(Cc3cscn3)C1)N(C(=O)OC)C2` | - | - | - | -3.37% | - | - |
| 38 | `c1ccc(-n2ccc(CNC3CCc4ncnn4C3)n2)cc1` (configuration not stated) | 3.947% | -18.91% | -29.07% | -1.643% | 2.778% | -3.476% |
| 39 | `CN(C)c1cc(CNC(=O)c2ccccc2Cl)ccn1` | 3.636% | -1.815% | -19.55% | -10.28% | 8.929% | 6.1% |
| 40 | `[H][C@@]12CCN(C(=O)c3cccnc3OC)C[C@@]1([H])O[C@H](C)C2` | - | - | - | -3.228% | - | - |
| 41 | `Cc1nc(C)c(S(=O)(=O)NC(=O)c2ccsc2)s1` | 2.67% | -8.177% | -2.684% | 4.003% | 4.762% | -2.016% |
| 42 | `CN(Cc1cc2cc(F)ccc2[nH]1)C(=O)C1CC(=O)N(C(C)(C)C)C1` (configuration not stated) | -3.469% | -2.257% | -23.15% | 13.34% | 6.557% | 1.342% |
| 43 | `CC1(C(=O)NCc2ccsc2)CCOCC1` | 3.947% | -6.848% | -2.398% | 14.84% | 1.379% | -8.038% |
| 44 | `Cc1cc(-c2cnc(NC3CCCC3)nc2-c2ccc(C)o2)on1` | 0.7353% | 25.92% | 0.3431% | -26.85% | 11.46% | - |
| 45 | `CCN1CCN(CC(C)(O)c2cccc(C(F)(F)F)c2)CC1` (configuration not stated) | 1.318% | -6.766% | -0.9402% | -5.451% | 3.125% | -2.421% |
| 46 | `Cc1ccc2[nH]c(-c3cn(C4CCNCC4)nn3)nc2c1C` | -40.27% | -20.41% | 9.605% | 1.265% | 23.94% | 1.147% |
| 47 | `CN(CC(O)C1CC1)C(=O)Nc1ccc(F)c(-n2cccc2)c1` (configuration not stated) | -9.163% | -12.23% | -10.78% | -14.61% | 8.219% | -0.4776% |
| 48 | `CC(C(=O)NCc1ccnc(OCC(F)(F)F)c1)n1cncn1` (configuration not stated) | -0.3205% | -13.56% | 9.786% | -2.276% | 20.55% | -2.557% |
| 49 | `Cc1cnc(Nc2cccc(C3CCCN3C(=O)CO)n2)s1` (configuration not stated) | -2.101% | -8.16% | -10.35% | 2.454% | 10.34% | -1.569% |
| 50 | `CCNc1cc2c(nn1)CCN(C(=O)Cc1noc3ccccc13)C2` | 11.19% | -12.47% | -1.978% | -3.578% | 13.64% | 3.801% |
| 51 | `O=C(O)C(F)(F)F.[H][C@@]12COC[C@]1([H])[C@@H](OCC1CCOCC1)CN2Cc1cccc(C#N)c1` | - | - | - | 6.986% | - | - |
| 52 | `O=C(C1CCCN(c2nc3ccccc3cc2CO)C1)N1CCCC1` (configuration not stated) | 3.893% | -10.33% | -3.71% | 6.261% | 13.33% | 5.156% |
| 53 | `COCCN(CCN(C)C)C(=O)NC1CC1` | -1.471% | -18.03% | -7.979% | -2.382% | 11.11% | 1.852% |
| 54 | `CC(C)CCn1c(=O)n(CCn2cccc2)c2cc(C(=O)O)cnc21` | 0.5155% and 24.61% | -15.51% | -1.467% | 17.35% | 17.24% | 0.4078% |
| 55 | `O=C1CC2(CCN(CC3CC3)CC2)CN1Cc1cc(F)cc(F)c1` | -0.1203% | -11.05% | -11.25% | -3.46% | 6.742% | 3.375% |
| 56 | `CN(C)C(=O)CN1CCC2(CCN(C(=O)N3CCCC3)CC2)C1=O` | 1.158% | -46.76% | -3.391% | -0.1109% | 13.46% | -0.7267% |
| 57 | `Cc1noc(C)c1-c1ccnc(C2CCN(S(=O)(=O)N(C)C)CC2)c1` | 4.326% | -96.59% | 7.355% | -3.261% | 8.966% | -5.49% |
| 58 | `CCNC(=O)[C@@H]1CCCN1C1(C(=O)NC)CCCCC1` | -1.129% | -17.06% | 0.8657% | - | 22.22% | -0.3765% |

For reference, 6 entries once more:

| SMILES | CoaBC | Pks13 thioesterase | ClpP1P2 | Toxoplasma | LiHisRS | MtTrpRS |
|---|---|---|---|---|---|---|
| `Cc1cc(-c2cnc(NC3CCCC3)nc2-c2ccc(C)o2)on1` | 0.7353% | 25.92% | 0.3431% | -26.85% | 11.46% | - |
| `CN1CC(=O)N(c2cnn(C)c2)CC12CCN(Cc1nccn1C)C2.O=C(O)C(F)(F)F.O=C(O)C(F)(F)F` (configuration not stated) | - | - | - | 18.66% | - | - |
| `CC(C)CCn1c(=O)n(CCn2cccc2)c2cc(C(=O)O)cnc21` | 0.5155% and 24.61% | -15.51% | -1.467% | 17.35% | 17.24% | 0.4078% |
| `COc1ccccc1CNC(Cc1cccs1)c1nc(C)c(C)s1.Cl` (configuration not stated) | - | - | - | -16.58% | - | - |
| `Cc1csc(C2(NCC(O)COC(C)C)CCCC2)n1` (configuration not stated) | 6.483% | -5.127% | -1.19% | -1.23% | 6.14% | -5.083% |
| `CN(C)C(=O)CN1CCC2(CCN(C(=O)N3CCCC3)CC2)C1=O` | 1.158% | -46.76% | -3.391% | -0.1109% | 13.46% | -0.7267% |

The values are deposited in ChEMBL (CHEMBL3988442, “University of Dundee, Small-Polar-MMV Screening Library” (2021)).